The other results are listed elsewhere or left out. The main result of the screen is listed elsewhere. These columns were measured beside it and carry no call. The list favours compounds with an active or inconclusive main result. Words in brackets tell the shape of the fitted curve; partial curves, single points and poor fits give uncertain potencies.
Assay: IkB Signaling
Details: ABC-DLBCL IkBa-CBG/CBR dual luciferase ratio (green luciferase fused to IkBa over red control in OCI-Ly3 lymphoma cells), 4 h; measured here: control luc red channel unless noted
In short: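 In this assay, an IκBα–CBG68 fusion accumulates when IKK-driven degradation is blocked; native CBR normalizes for cell number. OCI-Ly3 cells were treated 4 h with compound and doxycycline, then green and red light read after Chroma-Glo addition.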
In the case of `Cc1ccc(Cl)cc1Nc1sc(C(=O)c2ccc(F)cc2)c(N)c1S(C)(=O)=O`, the AC50 is reported as 12.6 µM [falling, partial curve]. For `O=C(CSc1nc(=O)n(Cc2ccco2)c2c1CCC2)Nc1cccc(F)c1`, the AC50 was 25.1 µM [falling, single point]. In the case of `Cc1cccc(NC(=O)CCNS(=O)(=O)c2cccc3nonc23)c1`, the AC50 is reported as 12.6 µM [falling, single point]. In the case of `CCN1c2ccccc2-c2nc(SCC(=O)Nc3c(C)cc(C)cc3C)ncc2S1(=O)=O`, the AC50 is reported as 0.158 µM [rising, full curve]. For `COc1cccc(-n2c(-c3ccco3)nc3c(cnn3-c3ccc(C)cc3)c2=O)c1`, the AC50 was 15.8 µM [falling, partial curve]. With `CCOc1ccc(NS(=O)(=O)c2ccc3[nH]cc(C(=O)NC4CCCC4)c(=O)c3c2)cc1` the AC50 was 6.31 µM [falling, partial curve]. With `O=C(O)c1cc(O)c2c(c1)C(=O)c1cccc(O)c1C2=O` the AC50 was 1 µM [falling, full curve]. With `CC1=C(C(=O)NCc2ccc(C)cc2)C2(CCCCC2)OC1=O` the AC50 was 25.1 µM [falling, partial curve, poor fit]. With `Cc1ccccc1-n1nnc2c(=O)oc3ccccc3c21` the AC50 was 25.1 µM [falling, single point]. For `Cc1ccc(C)c(Cn2c(SCC(=O)N(C)Cc3ccccc3)nc3ccccc32)c1`, the AC50 was 25.1 µM [falling, single point]. For `Cc1ccc(C)c(N2CCN(C(=O)CCCCCn3c(=O)[nH]c4ccccc4c3=O)CC2)c1`, the AC50 was 10 µM [falling, partial curve]. In the case of `CN(C(=O)CSc1nc2ccc(NC(=O)CCc3ccccc3)cc2s1)c1ccccc1`, the AC50 is reported as 7.94 µM [falling, partial curve]. In the case of `CCc1ccccc1NC(=O)C(=O)NCC(c1cccnc1)N1CCc2ccccc21` (stereo not given), the AC50 is reported as 3.16 µM [falling, full curve]. In the case of `CCOc1ccc(-c2cc(C(=O)N3CCN(c4cccc(C)c4)C(C)C3)c3ccccc3n2)cc1` (stereo not given), the AC50 is reported as 6.31 µM [falling, partial curve]. For `CC(NC(=O)c1cccc(NC(=O)c2nsc3ccccc23)c1)c1ccccc1` (stereo not given), the AC50 was 0.0398 µM [rising, full curve, poor fit]. For `COc1ccc2c(c1)Cc1sc(NC(=O)c3cccc(F)c3)nc1-2`, the AC50 was 20 µM [falling, partial curve]. For `COc1ccc(C(=O)Nc2ccc3oc(-c4ccc(OC)cc4)nc3c2)cc1`, the AC50 was 20 µM [rising, partial curve]. With `Cc1ccc(NC(=O)NCC2CCN(Cc3cccc(Cl)c3)CC2)cc1Cl` the AC50 was 39.8 µM [falling, single point]. With `CCc1cccc(NC(c2nnc(-c3ccccc3)o2)c2ccc(F)cc2Cl)c1` (stereo not given) the AC50 was 10 µM [falling, partial curve]. For `CCCC(=O)Nc1cc(-c2nc3cccnc3s2)ccc1C`, the AC50 was 0.794 µM [rising, full curve]. In the case of `COc1cccc(CNC(=O)CSc2nc3ccccc3nc2Cc2ccc(C)cc2)c1OC`, the AC50 is reported as 0.251 µM [falling, full curve, poor fit]. In the case of `CCc1nnc(NC(=O)c2cccc(C(=O)Nc3nnc(CC)s3)n2)s1`, the AC50 is reported as 2.51 µM [rising, partial curve] [measured here: IkB-luc green channel]. In the case of `CCOC(=O)CNC(=O)c1cc2c(=O)n3cccc(C)c3nc2s1`, the AC50 is reported as 5.01 µM [rising, partial curve]. In the case of `CCOc1ccccc1NC(=O)CSc1ncc(S(=O)(=O)c2ccc(C(C)(C)C)cc2)c(=O)[nH]1`, the AC50 is reported as 12.6 µM [falling, partial curve]. In the case of `CCCCNC(=O)CCn1c(=O)c2cccn2c2ccc(F)cc21`, the AC50 is reported as 20 µM [falling, single point]. In the case of `O=C(Cn1cnc2c(nnn2Cc2ccc(Cl)cc2)c1=O)OCc1ccccc1`, the AC50 is reported as 12.6 µM [falling, partial curve]. In the case of `COc1ccc(Nc2ncc(C(=O)Nc3cc(Cl)c(OC)cc3OC)c3ccccc23)cc1`, the AC50 is reported as 0.398 µM [falling, full curve]. In the case of `O=C(CCS(=O)(=O)c1nc(-c2ccc3c(c2)OCO3)cc(C(F)(F)F)n1)Nc1ccc(F)c(Cl)c1`, the AC50 is reported as 7.94 µM [falling, partial curve]. For `O=C(Nc1nc2c(ccc3ccccc32)s1)c1ccco1`, the AC50 was 12.6 µM [falling, partial curve]. With `CCOC(=O)c1c(C2COc3ccccc3O2)csc1N` (stereo not given) the AC50 was 39.8 µM [falling, single point]. With `COc1ccc(N2CCN(C(=O)c3ccc(Nc4nc5ccccc5n5nnnc45)cc3)CC2)cc1` the AC50 was 3.16 µM [falling, full curve]. For `Cc1ccc(N2C(=O)C3C(C2=O)C(C(=O)c2ccc(Cl)cc2)N2CCCC32)cc1` (stereo not given), the AC50 was 10 µM [falling, partial curve]. In the case of `Cc1ccc(C)c(N2CCN(C(=O)C3CCC(CNS(=O)(=O)c4ccc(Br)s4)CC3)CC2)c1` (stereo not given), the AC50 is reported as 6.31 µM [falling, partial curve]. For `CCC(Sc1ncnc2sc3c(c12)CCCC3)C(=O)OCC(C)C` (stereo not given), the AC50 was 25.1 µM [falling, partial curve]. For `CCOC(=O)N1CCC(NC(=O)c2cnn(-c3ccc(C)cc3)c2C2CCN(C(=O)OC(C)(C)C)CC2)CC1`, the AC50 was 31.6 µM [falling, single point]. For `COc1ccc(-n2c(SCc3nc(-c4ccc(Cl)cc4)no3)nnc2-c2ccncc2)cc1`, the AC50 was 25.1 µM [falling, single point]. In the case of `CCOc1ccc(-c2cc(CCCC(=O)NCCc3ccc(OC)c(OC)c3)no2)cc1`, the AC50 is reported as 5.01 µM [falling, partial curve]. For `CC(C)(C)C(=O)Nc1ccc2nc(SCCOc3ccccc3Cl)sc2c1`, the AC50 was 15.8 µM [falling, partial curve]. With `Oc1cccc(Nc2cc(-c3ccccc3)ncn2)c1` the AC50 was 15.8 µM [falling, partial curve]. With `CCc1ccccc1NC(=O)Cn1nnc(C(=O)Nc2ccc(OC)c(OC)c2)c1N` the AC50 was 25.1 µM [falling, single point].
